Measurements published in the supplement of paper PMC10849652.
This is one part of the list.

Amino acid sequences for entries named in this document (tags omitted). A change or cut given only in a name is not applied to a line headed by its entry.
UniProt P09884: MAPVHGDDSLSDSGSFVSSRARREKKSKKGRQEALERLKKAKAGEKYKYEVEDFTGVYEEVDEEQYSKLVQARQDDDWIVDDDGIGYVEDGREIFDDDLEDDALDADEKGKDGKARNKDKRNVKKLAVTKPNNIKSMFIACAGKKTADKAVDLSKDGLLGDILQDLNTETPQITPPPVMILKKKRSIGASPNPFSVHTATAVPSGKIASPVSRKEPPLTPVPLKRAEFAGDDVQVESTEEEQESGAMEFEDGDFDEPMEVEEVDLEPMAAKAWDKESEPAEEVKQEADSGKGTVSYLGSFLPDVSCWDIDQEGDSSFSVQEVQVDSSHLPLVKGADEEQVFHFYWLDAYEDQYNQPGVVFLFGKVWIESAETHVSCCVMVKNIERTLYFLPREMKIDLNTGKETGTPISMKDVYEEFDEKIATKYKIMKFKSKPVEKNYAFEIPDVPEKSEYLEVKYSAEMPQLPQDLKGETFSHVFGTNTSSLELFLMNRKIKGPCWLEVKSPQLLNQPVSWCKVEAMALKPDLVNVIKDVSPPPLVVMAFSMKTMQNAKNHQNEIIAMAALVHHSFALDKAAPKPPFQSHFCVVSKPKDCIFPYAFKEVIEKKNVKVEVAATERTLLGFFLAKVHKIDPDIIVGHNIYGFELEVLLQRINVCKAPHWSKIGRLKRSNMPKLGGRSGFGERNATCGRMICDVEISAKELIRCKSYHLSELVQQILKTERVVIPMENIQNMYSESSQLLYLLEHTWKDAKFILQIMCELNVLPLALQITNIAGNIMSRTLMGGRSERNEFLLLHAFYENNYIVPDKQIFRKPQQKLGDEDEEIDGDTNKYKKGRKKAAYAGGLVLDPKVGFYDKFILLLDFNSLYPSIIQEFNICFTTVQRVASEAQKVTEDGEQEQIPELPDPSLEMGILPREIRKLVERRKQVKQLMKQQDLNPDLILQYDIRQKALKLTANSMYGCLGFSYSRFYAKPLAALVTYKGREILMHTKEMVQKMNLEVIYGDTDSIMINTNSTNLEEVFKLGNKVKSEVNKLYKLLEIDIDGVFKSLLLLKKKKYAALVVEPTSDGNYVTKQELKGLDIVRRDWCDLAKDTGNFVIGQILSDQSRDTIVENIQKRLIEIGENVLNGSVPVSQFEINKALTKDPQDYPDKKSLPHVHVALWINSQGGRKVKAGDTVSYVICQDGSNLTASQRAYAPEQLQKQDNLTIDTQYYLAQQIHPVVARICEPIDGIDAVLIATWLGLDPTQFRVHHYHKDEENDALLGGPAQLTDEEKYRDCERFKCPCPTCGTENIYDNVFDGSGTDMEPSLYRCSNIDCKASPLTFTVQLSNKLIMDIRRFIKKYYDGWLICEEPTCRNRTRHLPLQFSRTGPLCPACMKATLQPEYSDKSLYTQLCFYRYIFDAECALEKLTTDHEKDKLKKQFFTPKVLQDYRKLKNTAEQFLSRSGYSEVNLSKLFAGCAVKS
UniProt Q9UHN1: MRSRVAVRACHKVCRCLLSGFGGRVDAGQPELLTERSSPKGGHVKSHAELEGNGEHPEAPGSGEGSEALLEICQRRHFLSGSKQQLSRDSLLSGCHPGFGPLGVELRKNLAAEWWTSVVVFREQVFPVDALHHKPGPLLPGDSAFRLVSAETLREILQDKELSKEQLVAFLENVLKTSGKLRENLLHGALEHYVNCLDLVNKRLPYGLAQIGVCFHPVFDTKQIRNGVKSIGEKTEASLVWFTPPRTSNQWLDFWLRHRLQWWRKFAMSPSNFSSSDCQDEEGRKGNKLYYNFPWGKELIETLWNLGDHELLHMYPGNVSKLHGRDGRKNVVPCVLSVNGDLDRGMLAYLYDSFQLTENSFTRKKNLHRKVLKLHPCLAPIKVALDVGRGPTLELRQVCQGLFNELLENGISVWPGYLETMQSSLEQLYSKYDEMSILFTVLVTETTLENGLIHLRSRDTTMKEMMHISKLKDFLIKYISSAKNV
UniProt Q9NP80: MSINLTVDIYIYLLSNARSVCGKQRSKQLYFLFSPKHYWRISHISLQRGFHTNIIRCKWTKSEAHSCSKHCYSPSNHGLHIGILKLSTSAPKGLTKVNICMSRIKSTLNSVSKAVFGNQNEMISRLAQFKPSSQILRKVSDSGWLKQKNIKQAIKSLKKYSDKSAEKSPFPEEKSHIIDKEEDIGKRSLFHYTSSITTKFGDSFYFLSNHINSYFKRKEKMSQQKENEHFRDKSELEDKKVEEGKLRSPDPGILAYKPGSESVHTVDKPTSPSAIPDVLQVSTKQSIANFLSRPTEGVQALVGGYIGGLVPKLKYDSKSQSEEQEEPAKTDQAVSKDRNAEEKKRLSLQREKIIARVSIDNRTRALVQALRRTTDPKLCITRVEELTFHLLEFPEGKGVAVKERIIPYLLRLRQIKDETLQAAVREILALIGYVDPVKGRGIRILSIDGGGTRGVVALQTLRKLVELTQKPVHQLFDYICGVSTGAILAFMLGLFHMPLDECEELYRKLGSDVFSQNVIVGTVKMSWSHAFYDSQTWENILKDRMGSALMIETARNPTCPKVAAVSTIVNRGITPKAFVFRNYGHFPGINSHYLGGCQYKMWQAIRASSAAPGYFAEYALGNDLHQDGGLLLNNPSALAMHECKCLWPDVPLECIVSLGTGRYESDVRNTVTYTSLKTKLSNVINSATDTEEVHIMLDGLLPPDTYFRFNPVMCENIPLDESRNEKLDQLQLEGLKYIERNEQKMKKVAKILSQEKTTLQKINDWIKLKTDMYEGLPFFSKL
UniProt Q6EEV4: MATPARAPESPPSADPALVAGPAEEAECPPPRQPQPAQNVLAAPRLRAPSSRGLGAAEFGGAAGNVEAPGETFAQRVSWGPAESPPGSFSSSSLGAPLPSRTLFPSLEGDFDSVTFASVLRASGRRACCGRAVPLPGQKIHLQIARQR
UniProt O94903: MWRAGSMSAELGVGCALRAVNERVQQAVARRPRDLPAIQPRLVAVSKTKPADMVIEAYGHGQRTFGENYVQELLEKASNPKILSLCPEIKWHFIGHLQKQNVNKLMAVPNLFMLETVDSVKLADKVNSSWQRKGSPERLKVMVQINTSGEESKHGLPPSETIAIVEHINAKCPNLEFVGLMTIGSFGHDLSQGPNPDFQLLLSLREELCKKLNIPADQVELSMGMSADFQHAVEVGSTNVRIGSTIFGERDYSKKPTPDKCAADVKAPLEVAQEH
UniProt O15160, whole entry, looked up: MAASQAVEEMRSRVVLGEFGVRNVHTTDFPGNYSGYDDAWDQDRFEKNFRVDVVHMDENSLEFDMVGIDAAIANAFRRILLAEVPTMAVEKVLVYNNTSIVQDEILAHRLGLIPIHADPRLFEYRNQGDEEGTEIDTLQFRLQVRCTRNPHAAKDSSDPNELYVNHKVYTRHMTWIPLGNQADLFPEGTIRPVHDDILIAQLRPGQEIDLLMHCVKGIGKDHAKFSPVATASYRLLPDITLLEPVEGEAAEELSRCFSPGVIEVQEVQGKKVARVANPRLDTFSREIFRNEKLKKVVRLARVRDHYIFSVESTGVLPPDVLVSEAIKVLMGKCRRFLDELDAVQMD
UniProt Q15126: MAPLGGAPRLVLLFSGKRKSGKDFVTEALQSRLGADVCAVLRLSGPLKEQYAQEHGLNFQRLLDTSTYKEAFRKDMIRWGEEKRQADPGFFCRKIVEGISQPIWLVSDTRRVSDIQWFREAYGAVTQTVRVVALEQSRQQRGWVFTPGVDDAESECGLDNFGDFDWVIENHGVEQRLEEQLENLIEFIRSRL
UniProt P23284: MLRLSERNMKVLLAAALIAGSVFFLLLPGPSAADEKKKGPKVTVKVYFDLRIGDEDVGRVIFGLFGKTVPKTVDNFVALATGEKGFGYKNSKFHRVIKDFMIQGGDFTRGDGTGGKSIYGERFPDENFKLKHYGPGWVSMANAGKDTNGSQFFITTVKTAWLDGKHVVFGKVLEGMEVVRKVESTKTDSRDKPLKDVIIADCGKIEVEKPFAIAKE
UniProt Q6PFW1: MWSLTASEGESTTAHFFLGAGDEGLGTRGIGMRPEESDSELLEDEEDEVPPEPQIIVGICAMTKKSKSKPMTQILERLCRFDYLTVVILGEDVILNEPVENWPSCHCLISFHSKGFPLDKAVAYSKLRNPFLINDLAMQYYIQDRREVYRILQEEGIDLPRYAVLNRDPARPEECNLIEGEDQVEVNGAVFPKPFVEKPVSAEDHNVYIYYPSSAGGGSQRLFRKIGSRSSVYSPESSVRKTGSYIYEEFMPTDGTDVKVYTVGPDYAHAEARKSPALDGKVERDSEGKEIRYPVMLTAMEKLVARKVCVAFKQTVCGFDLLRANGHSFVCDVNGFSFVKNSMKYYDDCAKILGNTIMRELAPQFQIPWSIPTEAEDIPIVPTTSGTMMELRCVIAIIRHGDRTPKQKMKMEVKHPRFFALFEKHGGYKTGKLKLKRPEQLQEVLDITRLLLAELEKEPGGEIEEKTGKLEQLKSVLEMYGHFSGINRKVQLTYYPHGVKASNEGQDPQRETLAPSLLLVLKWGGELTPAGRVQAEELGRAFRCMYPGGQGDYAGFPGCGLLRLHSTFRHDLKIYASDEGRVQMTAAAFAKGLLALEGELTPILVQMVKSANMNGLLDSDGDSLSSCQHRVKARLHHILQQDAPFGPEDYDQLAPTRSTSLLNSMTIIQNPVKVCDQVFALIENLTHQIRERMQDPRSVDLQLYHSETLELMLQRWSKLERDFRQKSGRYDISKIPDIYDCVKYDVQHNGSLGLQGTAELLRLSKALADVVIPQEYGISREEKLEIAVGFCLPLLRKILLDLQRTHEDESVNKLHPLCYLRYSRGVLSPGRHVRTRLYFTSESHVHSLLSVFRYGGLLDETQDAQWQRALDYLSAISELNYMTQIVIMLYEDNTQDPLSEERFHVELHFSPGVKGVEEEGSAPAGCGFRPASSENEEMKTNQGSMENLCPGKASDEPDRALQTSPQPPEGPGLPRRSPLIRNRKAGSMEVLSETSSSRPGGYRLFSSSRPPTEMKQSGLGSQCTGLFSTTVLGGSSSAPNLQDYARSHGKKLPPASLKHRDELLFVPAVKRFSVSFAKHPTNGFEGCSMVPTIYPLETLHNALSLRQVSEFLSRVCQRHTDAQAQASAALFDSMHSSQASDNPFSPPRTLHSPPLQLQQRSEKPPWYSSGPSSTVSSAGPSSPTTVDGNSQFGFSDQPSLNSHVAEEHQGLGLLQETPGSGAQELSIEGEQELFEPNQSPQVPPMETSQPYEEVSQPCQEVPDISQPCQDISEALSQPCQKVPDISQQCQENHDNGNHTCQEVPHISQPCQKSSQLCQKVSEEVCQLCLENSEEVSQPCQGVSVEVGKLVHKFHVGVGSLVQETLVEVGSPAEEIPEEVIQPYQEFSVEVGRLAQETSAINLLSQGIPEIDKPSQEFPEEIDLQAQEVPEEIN
UniProt Q96HA1, whole entry, looked up: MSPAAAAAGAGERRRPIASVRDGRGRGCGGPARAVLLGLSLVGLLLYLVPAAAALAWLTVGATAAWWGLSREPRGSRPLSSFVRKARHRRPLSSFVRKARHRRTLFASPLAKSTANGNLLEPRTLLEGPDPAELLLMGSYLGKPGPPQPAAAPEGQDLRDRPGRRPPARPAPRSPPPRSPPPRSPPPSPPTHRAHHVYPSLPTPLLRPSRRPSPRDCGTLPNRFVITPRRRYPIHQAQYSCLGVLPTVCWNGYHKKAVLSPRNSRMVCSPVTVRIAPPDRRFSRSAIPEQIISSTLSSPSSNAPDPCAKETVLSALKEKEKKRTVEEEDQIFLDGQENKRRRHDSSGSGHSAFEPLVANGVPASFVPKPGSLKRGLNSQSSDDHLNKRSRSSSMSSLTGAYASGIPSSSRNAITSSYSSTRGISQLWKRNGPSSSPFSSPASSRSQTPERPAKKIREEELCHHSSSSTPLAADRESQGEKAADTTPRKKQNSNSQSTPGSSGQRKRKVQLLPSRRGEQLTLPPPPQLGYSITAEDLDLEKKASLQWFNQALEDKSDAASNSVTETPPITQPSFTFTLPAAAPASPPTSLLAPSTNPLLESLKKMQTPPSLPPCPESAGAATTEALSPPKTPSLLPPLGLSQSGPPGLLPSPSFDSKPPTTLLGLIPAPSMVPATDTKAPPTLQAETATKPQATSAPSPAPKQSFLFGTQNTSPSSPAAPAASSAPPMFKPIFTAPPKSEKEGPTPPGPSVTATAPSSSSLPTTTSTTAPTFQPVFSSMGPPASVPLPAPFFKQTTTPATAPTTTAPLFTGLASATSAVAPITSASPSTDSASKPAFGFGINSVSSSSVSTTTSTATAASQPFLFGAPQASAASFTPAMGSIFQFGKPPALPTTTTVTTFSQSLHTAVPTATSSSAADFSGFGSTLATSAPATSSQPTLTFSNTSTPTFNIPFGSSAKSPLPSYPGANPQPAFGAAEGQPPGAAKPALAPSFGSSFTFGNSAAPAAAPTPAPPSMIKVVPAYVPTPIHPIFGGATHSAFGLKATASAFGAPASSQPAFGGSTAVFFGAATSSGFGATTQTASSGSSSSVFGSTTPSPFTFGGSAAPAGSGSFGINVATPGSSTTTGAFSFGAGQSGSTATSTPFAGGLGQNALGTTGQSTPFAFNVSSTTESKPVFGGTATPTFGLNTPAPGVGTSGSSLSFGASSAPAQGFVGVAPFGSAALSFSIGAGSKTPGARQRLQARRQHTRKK

Key:
Assay in all cases: log2 fold change, soluble protein after heating vs DMSO (PISA); higher = thermal stabilisation; K562 cells, 10 uM, 30 min; active = over 0.2 and 3.5 SD of the protein, either way, in both replicates (recomputed)
[1] = compound: C1=CC=C(C=C1)[C@H](COC2=CC3=C(C=C2)NC(=O)N3)NC(=O)C4=CC=CN(C4=O)CC5=CC(=C(C=C5)F)F
Method in brief: (§1)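 Soluble protein was quantified by TMTpro 16plex LC-MS/MS after channel sums were equalised. It was obtained as the supernatant after 21,000xg for 90 min from pooled aliquots of K562 cells (2×10^6 cells/mL, 10 μM compound, 30 min) heated for 3 min across 48°C-58°C and extracted in PBS with 0.5% NP-40 at 4°C. Thermal stability values are relative to control samples and come from duplicates. They are given as log2 fold changes.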

[2] = compound: CC1=C(SC2=C1C(=N[C@H](C3=NN=C(N32)C)CC(=O)N)C4=CC=C(C=C4)Cl)C
Method in brief: as §1

[3] = compound: CC1=C2C(=CC=C1)N=C(N(C2=O)C3=CC=CC=C3C)CN4C=NC5=C(N=CN=C54)N
Method in brief: as §1

[4] = compound: Cc1sc2c(c1C)C(c1ccc(Cl)cc1)=N[C@@H](CC(=O)OC(C)(C)C)c1nnc(C)n1-2
Method in brief: as §1

[5] = compound: c1ccc([C@@H]2C[C@H]2NC2CCNCC2)cc1
Method in brief: as §1

Measured: log2 fold change

POLA1 (UniProt P09884)
inactive: [1] -0.059 | [2] 0.105 | [3] 0.101 | [4] -0.012 | [5] 0

POGLUT2 (UniProt Q6UW63)
inactive: [1] 0.037 | [2] -0.045 | [3] -0.001 | [4] 0.013 | [5] 0.001

POLR2A (UniProt P24928)
inactive: [1] -0.014 | [2] 0.158 | [3] 0.031 | [4] 0.17 | [5] -0.059

POMGNT1 isoform 2 (UniProt Q8WZA1)
inactive: [1] 0.028 | [2] 0.093 | [3] 0.09 | [4] 0.078 | [5] 0.091

POLG2 (UniProt Q9UHN1)
inactive: [1] 0.012 | [2] 0 | [3] -0.028 | [4] 0.008 | [5] 0.006

PLIN3 (UniProt O60664)
inactive: [1] -0.024 | [2] -0.004 | [3] -0.007 | [4] -0.017 | [5] -0.028

POLR3GL (UniProt Q9BT43)
inactive: [1] 0

PLVAP (UniProt Q9BX97)
inactive: [1] -0.144 | [2] 0.143 | [3] 0.118 | [4] -0.028 | [5] -0.044

PLK1 (UniProt P53350)
inactive: [1] 0.02 | [2] 0.037 | [3] 0.019 | [4] -0.012 | [5] 0.007

PML (UniProt P29590)
inactive: [1] -0.008 | [2] -0.054 | [3] 0.002 | [4] -0.005 | [5] 0.001

PNPLA8 (UniProt Q9NP80)
inactive: [1] 0.024 | [2] 0.031 | [3] 0.007 | [4] -0.006 | [5] 0.024

POLR3E (UniProt Q9NVU0)
inactive: [1] -0.126 | [2] -0.004 | [3] 0.142 | [4] 0.006 | [5] -0.046

PLOD3 (UniProt O60568)
inactive: [1] 0.025 | [2] -0.059 | [3] -0.015 | [4] 0.038 | [5] -0.015

Quoted at random: 2 records from the list
PLK1 (UniProt P53350)
inactive: [1] 0.02 | [2] 0.037 | [3] 0.019 | [4] -0.012 | [5] 0.007

POLG2 (UniProt Q9UHN1)
inactive: [1] 0.012 | [2] 0 | [3] -0.028 | [4] 0.008 | [5] 0.006

(continued)

POLR2M (UniProt Q6EEV4)
inactive: [1] 0.092 | [2] 0.105 | [3] -0.002 | [4] -0.128 | [5] -0.107

POLQ (UniProt O75417)
inactive: [1] -0.004

POP4 (UniProt O95707)
inactive: [1] -0.01 | [2] 0.038 | [3] 0.042 | [4] 0.068 | [5] -0.135

POLR3F (UniProt Q9H1D9)
inactive: [1] 0.025 | [2] -0.029 | [3] 0.124 | [4] -0.005 | [5] 0.009

POLR2H (UniProt P52434)
inactive: [1] -0.005 | [2] 0.04 | [3] 0.107 | [4] 0.006 | [5] -0.068

PLPBP (UniProt O94903)
inactive: [1] -0.093 | [2] 0.048 | [3] 0.066 | [4] -0.039 | [5] 0.017

PNPT1 (UniProt Q8TCS8)
inactive: [1] -0.134 | [2] 0.073 | [3] 0.091 | [4] -0.011 | [5] -0.042

PPIG (UniProt Q13427)
inactive: [1] -0.295

POC1A (UniProt Q8NBT0)
inactive: [1] -0.014 | [2] 0.039 | [3] -0.116 | [4] 0.367 | [5] 0.057

PLEKHM2 (UniProt Q8IWE5)
inactive: [1] -0.027 | [2] 0.076 | [3] -0.016 | [4] 0.089 | [5] -0.048

PPM1A isoform 3 (UniProt P35813)
inactive: [1] -0.056 | [2] 0.016 | [3] 0.078 | [4] 0.026 | [5] -0.06

PLXNA1 (UniProt Q9UIW2)
inactive: [1] -0.029 | [2] 0.069 | [3] 0.035 | [4] -0.003 | [5] 0.041

PLOD1 isoform 2 (UniProt Q02809)
inactive: [1] 0.057 | [2] -0.092 | [3] -0.008 | [4] 0.008 | [5] 0

POLR1C (UniProt O15160)
inactive: [1] -0.08 | [2] -0.025 | [3] 0.005 | [4] 0.053 | [5] 0.008

PLG (UniProt P00747)
inactive: [1] 0.026 | [2] -0.056 | [3] -0.125 | [4] 0.046 | [5] 0.065

PNPO (UniProt Q9NVS9)
inactive: [1] 0.048 | [2] 0.042 | [3] 0.035 | [4] -0.031 | [5] -0.022

PLXNB2 (UniProt O15031)
inactive: [1] 0.016 | [2] 0.07 | [3] 0.035 | [4] -0.021 | [5] 0.008

POLG (UniProt P54098)
inactive: [1] 0.052 | [2] -0.057 | [3] 0.197 | [4] -0.171 | [5] -0.029

PMVK (UniProt Q15126)
inactive: [1] -0.156 | [2] 0.004 | [3] 0.116 | [4] 0.063 | [5] 0.028

POGLUT3 (UniProt Q7Z4H8)
inactive: [1] 0.022 | [2] -0.034 | [3] -0.033 | [4] 0.016 | [5] -0.035

PLIN2 (UniProt Q99541)
inactive: [1] -0.063 | [2] -0.006 | [3] 0.093 | [4] 0.004 | [5] 0.015

PPIB (UniProt P23284)
inactive: [1] 0.02 | [2] -0.045 | [3] 0.003 | [4] 0.004 | [5] -0.004

PLS3 (UniProt P13797)
inactive: [1] -0.02 | [2] 0.016 | [3] 0.054 | [4] 0.009 | [5] -0.004

POLR1A (UniProt O95602)
inactive: [1] 0.049 | [2] -0.043 | [3] -0.044 | [4] 0.096 | [5] -0.015

PPIH (UniProt O43447)
inactive: [1] -0.052 | [2] 0.013 | [3] 0.108 | [4] 0 | [5] -0.021

POMP (UniProt Q9Y244)
inactive: [1] -0.101 | [2] -0.077 | [3] -0.069 | [4] -0.018 | [5] -0.009

PPIP5K1 (UniProt Q6PFW1)
inactive: [1] 0.018 | [2] 0.057 | [3] 0.033 | [4] -0.023 | [5] -0.016

PMF1 (UniProt Q6P1K2)
inactive: [1] 0.009 | [2] -0.025 | [3] -0.003 | [4] -0.044 | [5] -0.02

PON2 (UniProt Q15165)
inactive: [1] 0.029 | [2] -0.073 | [3] 0.02 | [4] -0.01 | [5] 0.041

PPIA (UniProt P62937)
inactive: [1] -0.01 | [2] 0.03 | [3] 0.041 | [4] -0.014 | [5] -0.003

PPAN isoform 3 (UniProt Q9NQ55)
inactive: [1] 0.015 | [2] -0.244 | [3] -0.164 | [4] 0.12 | [5] -0.067

POLR2K (UniProt P53803)
inactive: [1] 0.053 | [2] 0.06 | [3] 0.046 | [4] 0.032 | [5] -0.056

PMAIP1 (UniProt Q13794)
inactive: [1] -0.105 | [2] 0.002 | [3] 0.034 | [4] 0.286 | [5] 0.035

POLD1 (UniProt P28340)
inactive: [1] 0.017 | [2] 0.019 | [3] 0.094 | [4] 0.048 | [5] 0

PPIL2 (UniProt Q13356)
inactive: [1] -0.028 | [2] 0.041 | [3] 0.098 | [4] -0.019 | [5] -0.011

PLEKHF2 (UniProt Q9H8W4)
inactive: [1] -0.093 | [2] 0.044 | [3] 0.217 | [4] -0.057 | [5] -0.019

PNKD isoform 2 (UniProt Q8N490)
inactive: [1] 0.012 | [2] 0.089 | [3] 0.096 | [4] 0.037 | [5] -0.011

PNKD isoform 3 (UniProt Q8N490)
inactive: [1] 0.042 | [2] 0.019 | [3] 0.132 | [4] -0.08 | [5] 0.04

POLD2 (UniProt P49005)
inactive: [1] -0.028 | [2] 0.049 | [3] 0.082 | [4] -0.012 | [5] 0.009

POM121 (UniProt Q96HA1)
inactive: [1] 0.023 | [2] -0.033 | [3] 0.026 | [4] 0.054 | [5] -0.002

POP1 (UniProt Q99575)
inactive: [1] 0.003 | [2] -0.028 | [3] 0.029 | [4] 0.017 | [5] -0.01

POLDIP2 (UniProt Q9Y2S7)
inactive: [1] -0.03 | [2] 0.025 | [3] 0.046 | [4] -0.038 | [5] 0.016
